The record followed here is the supplement of paper PMC10849652.

Chains of the proteins cited; added tags and fusions are not shown. Lines headed by an entry give the natural chain unless they say otherwise; changes in a name come on top.
UniProt O95359: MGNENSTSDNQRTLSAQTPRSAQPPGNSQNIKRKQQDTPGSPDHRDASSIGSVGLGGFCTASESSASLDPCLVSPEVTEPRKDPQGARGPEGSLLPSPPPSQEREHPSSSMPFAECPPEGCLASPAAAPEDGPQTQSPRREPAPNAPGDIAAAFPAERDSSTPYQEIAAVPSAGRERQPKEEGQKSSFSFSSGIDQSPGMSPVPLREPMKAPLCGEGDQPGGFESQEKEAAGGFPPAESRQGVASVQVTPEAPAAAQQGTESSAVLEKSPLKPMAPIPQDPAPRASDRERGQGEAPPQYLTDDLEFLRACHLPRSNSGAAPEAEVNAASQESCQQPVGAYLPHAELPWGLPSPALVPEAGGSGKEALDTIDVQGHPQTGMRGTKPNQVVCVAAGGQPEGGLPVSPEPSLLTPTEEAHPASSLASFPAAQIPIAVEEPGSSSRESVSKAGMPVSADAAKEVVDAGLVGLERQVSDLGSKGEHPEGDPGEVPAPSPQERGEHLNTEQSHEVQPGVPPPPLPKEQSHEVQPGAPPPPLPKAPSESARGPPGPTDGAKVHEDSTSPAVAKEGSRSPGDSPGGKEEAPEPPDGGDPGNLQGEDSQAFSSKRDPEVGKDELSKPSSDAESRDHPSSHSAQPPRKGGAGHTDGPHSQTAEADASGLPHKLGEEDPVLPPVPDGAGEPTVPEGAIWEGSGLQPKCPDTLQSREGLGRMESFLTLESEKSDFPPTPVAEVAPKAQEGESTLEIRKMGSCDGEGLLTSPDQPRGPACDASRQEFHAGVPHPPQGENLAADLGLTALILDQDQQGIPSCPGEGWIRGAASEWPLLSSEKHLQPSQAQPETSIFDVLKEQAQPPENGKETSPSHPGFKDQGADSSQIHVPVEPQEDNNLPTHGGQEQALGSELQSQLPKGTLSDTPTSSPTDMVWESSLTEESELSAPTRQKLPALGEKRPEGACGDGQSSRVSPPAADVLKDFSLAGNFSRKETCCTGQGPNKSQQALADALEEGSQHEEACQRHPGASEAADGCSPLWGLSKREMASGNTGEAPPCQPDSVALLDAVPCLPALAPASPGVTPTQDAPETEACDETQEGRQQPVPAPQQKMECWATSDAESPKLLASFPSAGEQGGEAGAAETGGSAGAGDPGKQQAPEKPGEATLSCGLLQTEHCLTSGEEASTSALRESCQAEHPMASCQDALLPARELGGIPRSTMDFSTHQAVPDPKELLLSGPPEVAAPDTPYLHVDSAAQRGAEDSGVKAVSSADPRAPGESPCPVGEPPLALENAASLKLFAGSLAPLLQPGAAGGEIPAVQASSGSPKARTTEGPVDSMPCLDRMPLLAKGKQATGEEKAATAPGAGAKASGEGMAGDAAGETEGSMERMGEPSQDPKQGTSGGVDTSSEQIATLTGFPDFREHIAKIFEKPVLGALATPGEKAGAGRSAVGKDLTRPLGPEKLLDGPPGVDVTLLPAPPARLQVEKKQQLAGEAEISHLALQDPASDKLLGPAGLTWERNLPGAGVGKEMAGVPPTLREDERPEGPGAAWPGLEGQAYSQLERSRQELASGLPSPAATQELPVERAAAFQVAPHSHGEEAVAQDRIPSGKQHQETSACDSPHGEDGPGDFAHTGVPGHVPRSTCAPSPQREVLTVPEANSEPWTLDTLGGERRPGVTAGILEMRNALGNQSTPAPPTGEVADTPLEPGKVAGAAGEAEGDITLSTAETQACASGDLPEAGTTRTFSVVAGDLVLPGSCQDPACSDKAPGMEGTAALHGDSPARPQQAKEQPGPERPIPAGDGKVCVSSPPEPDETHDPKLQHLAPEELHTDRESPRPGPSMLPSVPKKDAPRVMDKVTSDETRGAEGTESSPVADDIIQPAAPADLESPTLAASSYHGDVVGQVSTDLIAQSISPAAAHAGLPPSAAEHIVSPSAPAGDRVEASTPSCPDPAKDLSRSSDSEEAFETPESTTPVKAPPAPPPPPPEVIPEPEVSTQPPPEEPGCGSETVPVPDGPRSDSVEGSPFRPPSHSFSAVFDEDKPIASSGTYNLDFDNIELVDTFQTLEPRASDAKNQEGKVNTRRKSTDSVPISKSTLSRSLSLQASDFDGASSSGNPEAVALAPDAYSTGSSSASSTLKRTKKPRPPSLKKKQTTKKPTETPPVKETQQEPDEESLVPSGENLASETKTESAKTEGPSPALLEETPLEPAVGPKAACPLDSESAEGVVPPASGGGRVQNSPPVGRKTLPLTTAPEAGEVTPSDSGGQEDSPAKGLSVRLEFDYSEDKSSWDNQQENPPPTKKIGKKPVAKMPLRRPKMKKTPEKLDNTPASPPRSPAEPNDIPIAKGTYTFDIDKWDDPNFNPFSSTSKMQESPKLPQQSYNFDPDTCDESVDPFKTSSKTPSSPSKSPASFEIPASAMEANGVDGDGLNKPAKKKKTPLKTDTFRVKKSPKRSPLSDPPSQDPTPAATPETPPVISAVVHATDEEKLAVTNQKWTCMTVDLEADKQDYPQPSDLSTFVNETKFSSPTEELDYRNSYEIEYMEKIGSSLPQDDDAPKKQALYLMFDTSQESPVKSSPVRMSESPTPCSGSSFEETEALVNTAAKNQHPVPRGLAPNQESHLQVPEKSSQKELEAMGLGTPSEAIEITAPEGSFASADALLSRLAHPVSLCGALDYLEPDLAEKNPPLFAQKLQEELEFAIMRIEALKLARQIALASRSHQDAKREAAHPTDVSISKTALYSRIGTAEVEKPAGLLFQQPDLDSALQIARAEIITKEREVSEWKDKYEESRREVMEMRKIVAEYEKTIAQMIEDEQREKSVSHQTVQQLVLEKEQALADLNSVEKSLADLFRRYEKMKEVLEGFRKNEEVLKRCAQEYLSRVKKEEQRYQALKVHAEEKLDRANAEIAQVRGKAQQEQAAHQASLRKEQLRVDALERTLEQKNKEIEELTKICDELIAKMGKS
UniProt Q9Y6J9: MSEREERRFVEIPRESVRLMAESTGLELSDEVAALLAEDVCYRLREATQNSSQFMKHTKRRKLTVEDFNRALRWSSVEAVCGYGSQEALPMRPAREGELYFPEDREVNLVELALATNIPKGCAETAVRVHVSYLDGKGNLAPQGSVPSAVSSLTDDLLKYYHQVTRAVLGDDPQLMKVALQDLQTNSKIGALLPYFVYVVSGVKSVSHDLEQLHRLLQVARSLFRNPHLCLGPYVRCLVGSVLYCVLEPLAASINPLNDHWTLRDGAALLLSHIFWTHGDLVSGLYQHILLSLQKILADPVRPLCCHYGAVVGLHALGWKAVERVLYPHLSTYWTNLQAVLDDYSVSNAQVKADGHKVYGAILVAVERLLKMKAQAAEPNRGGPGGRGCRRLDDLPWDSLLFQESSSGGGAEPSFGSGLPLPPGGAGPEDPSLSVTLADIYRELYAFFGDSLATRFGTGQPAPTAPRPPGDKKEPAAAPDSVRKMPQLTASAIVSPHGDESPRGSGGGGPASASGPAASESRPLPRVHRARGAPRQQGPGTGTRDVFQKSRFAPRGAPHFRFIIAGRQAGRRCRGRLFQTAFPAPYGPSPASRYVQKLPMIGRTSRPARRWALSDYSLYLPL
UniProt Q15543, whole entry, looked up: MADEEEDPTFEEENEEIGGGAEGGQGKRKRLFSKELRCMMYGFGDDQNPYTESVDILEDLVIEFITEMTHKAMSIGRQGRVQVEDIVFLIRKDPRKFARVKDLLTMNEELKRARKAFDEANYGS
UniProt Q15544, whole entry, looked up: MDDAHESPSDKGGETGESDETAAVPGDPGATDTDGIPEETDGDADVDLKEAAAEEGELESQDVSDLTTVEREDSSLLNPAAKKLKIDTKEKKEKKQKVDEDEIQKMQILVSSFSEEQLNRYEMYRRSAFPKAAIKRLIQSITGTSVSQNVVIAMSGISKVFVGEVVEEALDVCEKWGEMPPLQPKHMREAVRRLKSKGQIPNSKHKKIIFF
UniProt Q8N300: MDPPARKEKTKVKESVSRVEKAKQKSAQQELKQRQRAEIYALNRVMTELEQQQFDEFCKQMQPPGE
UniProt Q6UWL2: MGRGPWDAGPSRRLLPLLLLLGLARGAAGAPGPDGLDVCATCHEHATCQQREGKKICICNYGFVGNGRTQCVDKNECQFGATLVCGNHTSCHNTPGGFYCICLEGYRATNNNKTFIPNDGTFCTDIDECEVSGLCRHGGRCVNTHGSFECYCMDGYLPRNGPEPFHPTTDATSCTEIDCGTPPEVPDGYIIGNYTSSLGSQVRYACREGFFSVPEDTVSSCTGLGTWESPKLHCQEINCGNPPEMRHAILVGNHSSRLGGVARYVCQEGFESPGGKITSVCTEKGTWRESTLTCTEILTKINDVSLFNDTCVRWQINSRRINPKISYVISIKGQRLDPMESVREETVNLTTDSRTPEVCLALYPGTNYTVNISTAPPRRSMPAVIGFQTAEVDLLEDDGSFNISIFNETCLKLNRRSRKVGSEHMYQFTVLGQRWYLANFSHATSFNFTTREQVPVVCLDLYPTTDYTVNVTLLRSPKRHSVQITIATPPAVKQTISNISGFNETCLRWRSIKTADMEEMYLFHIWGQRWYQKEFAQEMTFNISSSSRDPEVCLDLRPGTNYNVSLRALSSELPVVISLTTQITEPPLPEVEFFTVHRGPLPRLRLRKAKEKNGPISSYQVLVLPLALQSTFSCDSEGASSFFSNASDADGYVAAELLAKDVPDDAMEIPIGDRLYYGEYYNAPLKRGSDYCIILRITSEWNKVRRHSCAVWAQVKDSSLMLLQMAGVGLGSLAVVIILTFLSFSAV
UniProt Q9UL54: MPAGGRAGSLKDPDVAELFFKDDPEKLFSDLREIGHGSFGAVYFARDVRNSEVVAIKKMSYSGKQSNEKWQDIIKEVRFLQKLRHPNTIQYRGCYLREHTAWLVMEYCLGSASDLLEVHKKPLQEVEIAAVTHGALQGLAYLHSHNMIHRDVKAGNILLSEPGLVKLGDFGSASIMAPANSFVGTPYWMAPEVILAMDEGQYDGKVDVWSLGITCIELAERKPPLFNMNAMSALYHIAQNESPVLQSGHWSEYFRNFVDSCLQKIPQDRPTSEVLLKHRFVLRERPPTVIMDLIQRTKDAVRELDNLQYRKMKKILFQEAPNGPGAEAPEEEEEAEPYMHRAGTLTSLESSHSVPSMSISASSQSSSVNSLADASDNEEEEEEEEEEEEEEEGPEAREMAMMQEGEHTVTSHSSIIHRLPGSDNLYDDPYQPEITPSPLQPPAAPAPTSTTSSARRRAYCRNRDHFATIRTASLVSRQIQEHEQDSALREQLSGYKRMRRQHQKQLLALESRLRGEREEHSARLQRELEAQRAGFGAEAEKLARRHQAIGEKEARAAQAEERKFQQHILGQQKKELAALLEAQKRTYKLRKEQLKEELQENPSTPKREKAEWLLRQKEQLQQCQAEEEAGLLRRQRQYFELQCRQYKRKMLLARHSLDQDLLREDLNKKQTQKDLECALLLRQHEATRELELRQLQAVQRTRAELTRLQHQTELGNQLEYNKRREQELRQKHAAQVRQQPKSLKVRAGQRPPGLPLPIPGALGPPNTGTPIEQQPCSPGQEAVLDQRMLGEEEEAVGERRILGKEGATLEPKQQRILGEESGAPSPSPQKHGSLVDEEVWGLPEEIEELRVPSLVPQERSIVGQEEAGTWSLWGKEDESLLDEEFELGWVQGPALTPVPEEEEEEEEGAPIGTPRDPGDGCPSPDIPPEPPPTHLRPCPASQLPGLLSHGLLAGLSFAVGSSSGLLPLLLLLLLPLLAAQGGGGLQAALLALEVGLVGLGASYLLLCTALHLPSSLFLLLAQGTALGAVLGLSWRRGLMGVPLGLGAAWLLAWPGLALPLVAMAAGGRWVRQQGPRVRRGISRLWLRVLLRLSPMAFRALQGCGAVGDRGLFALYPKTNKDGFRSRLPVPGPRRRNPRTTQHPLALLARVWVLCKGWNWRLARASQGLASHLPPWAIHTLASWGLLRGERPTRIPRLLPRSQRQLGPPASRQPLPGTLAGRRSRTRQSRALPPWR
UniProt P08247, whole entry, looked up: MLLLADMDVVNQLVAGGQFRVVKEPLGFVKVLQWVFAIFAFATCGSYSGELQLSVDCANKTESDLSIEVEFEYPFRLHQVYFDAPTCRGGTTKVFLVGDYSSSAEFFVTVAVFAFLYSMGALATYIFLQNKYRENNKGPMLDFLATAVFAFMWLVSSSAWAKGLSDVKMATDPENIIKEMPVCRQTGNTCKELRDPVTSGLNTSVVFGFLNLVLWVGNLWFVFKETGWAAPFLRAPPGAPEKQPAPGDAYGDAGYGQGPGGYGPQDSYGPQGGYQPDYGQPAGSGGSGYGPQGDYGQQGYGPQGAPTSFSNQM
UniProt Q8WUJ0: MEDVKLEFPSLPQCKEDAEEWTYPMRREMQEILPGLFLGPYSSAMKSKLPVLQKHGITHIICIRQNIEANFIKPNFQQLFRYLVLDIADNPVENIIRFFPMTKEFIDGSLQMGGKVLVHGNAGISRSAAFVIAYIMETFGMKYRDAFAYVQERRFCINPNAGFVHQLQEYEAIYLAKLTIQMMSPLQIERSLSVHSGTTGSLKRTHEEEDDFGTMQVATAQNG

The other results are listed elsewhere or left out.

Compound in one test: CS(=O)(=O)c1ccc(-c2cnc(N)c(C(=O)Nc3ccccc3)n2)cc1
Description: log2 fold change, soluble protein after heating vs DMSO (PISA); higher = thermal stabilisation; K562 cells, 10 uM, 30 min; active = over 0.2 and 3.5 SD of the protein, either way, in both replicates (recomputed). In short, it runs like this: (§1)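 K562 cells at 2×10^6 cells/mL were treated with 10 μM compound for 30 min. Aliquots were heated for 3 min across 48°C-58°C, pooled, and extracted in PBS with 0.5% NP-40 at 4°C; soluble protein was the supernatant after 21,000xg for 90 min. Soluble protein was quantified by TMTpro 16plex LC-MS/MS with channel sums equalised, and reported as log2 fold change in thermal stability against DMSO controls, with values from duplicates.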
As for TACC2 (UniProt O95359), the log2 fold change is inactive: -0.045.

For TAF6L (UniProt Q9Y6J9), the log2 fold change was inactive: -0.035.

SUGP2 (UniProt Q8IX01): the log2 fold change was inactive: -0.272.

On to SYTL4 (UniProt Q96C24), for which the log2 fold change was inactive: 0.188.

In the case of TAF13 (UniProt Q15543), the log2 fold change was inactive: 0.009.

Take TAF11 (UniProt Q15544): the log2 fold change was inactive: -0.019.

On to TAB2 (UniProt Q9NYJ8), for which the log2 fold change was inactive: 0.043.

As to SVBP (UniProt Q8N300), the log2 fold change is inactive: 0.032.

As for STRIP2 (UniProt Q9ULQ0), the log2 fold change was inactive: -0.065.

Compound in a further test: C[C@@H](Oc1cc(-c2cnn(C3CCNCC3)c2)cnc1N)c1c(Cl)ccc(F)c1Cl [crizotinib]
The description is as above. In short, it runs like this:
as §1
For SUPT7L (UniProt O94864), the log2 fold change was inactive: 0.057.

Turning to STON2 isoform 3 (UniProt Q8WXE9), the log2 fold change was inactive: -0.053.

For SUSD1 isoform 2 (UniProt Q6UWL2), the log2 fold change was inactive: 0.04.

For TAOK2 (UniProt Q9UL54), the log2 fold change was inactive: 0.157.

Turning to STXBP4 (UniProt Q6ZWJ1), the log2 fold change was inactive: -0.227.

For SYP (UniProt P08247), the log2 fold change is inactive: -0.026.

Turning to STRN3 isoform 2 (UniProt Q13033), the log2 fold change is inactive: -0.031.

Consider SUGT1 isoform 2 (UniProt Q9Y2Z0), for which the log2 fold change is inactive: 0.127.

Take TAF5 (UniProt Q15542): the log2 fold change was inactive: -0.079.

As to SUZ12 (UniProt Q15022), the log2 fold change was inactive: -0.009.

On to TBC1D10A (UniProt Q9BXI6), for which the log2 fold change is inactive: -0.108.

Compound in the next test: C[C@@H]1COCCN1C2=NC(=NC(=C2)C3(CC3)S(=O)(=O)C)C4=C5C=CNC5=CC=C4
Described as above. In short, it runs like this:
as §1
For the target TBC1D12 (UniProt O60347), the log2 fold change was inactive: -0.036.

Regarding SYK (UniProt P43405), the log2 fold change was inactive: -0.093.

On to TASP1 (UniProt Q9H6P5), for which the log2 fold change is inactive: -0.617.

For the target SUGP2 (UniProt Q8IX01), the log2 fold change is inactive: -0.411.

For the target SYTL4 (UniProt Q96C24), the log2 fold change is inactive: 0.078.

As to TAOK2 (UniProt Q9UL54), the log2 fold change was inactive: -0.108.

Regarding STXBP4 (UniProt Q6ZWJ1), the log2 fold change was inactive: -0.115.

For the target TAF13 (UniProt Q15543), the log2 fold change was inactive: -0.161.

SYP (UniProt P08247): the log2 fold change is inactive: 0.098.

STRN3 isoform 2 (UniProt Q13033): the log2 fold change was inactive: 0.019.

For the target TAF5 (UniProt Q15542), the log2 fold change was inactive: 0.07.

Consider TAB2 (UniProt Q9NYJ8), for which the log2 fold change is inactive: 0.

Take SVBP (UniProt Q8N300): the log2 fold change was inactive: 0.131.

On to STRIP2 (UniProt Q9ULQ0), for which the log2 fold change is inactive: -0.035.

As to TBC1D10A (UniProt Q9BXI6), the log2 fold change was inactive: 0.104.

Compound in the next test: C[C@H](C1=CC=C(C=C1)C(=O)NC2=C3C=CNC3=NC=C2)N
The test is described as above. In short, it runs like this:
as §1
Turning to TBC1D12 (UniProt O60347), the log2 fold change was inactive: 0.355.

In the case of SYK (UniProt P43405), the log2 fold change is inactive: 0.053.

Turning to SUSD1 isoform 2 (UniProt Q6UWL2), the log2 fold change is inactive: 0.076.

For TACC2 (UniProt O95359), the log2 fold change is inactive: -0.013.

STK35 (UniProt Q8TDR2): the log2 fold change is inactive: -0.188.

Take TAF6L (UniProt Q9Y6J9): the log2 fold change is inactive: 0.058.

For SYTL4 (UniProt Q96C24), the log2 fold change was inactive: 0.041.

For the target TAF11 (UniProt Q15544), the log2 fold change was inactive: 0.08.

For SYP (UniProt P08247), the log2 fold change was inactive: 0.053.

For the target STRN3 isoform 2 (UniProt Q13033), the log2 fold change is inactive: -0.044.

Take SVBP (UniProt Q8N300): the log2 fold change was inactive: -0.024.

Consider STRIP2 (UniProt Q9ULQ0), for which the log2 fold change was inactive: -0.01.

Compound in the next test: C[C@H](Nc1ncnc2nc[nH]c12)c1cc2cccc(Cl)c2c(=O)n1-c1ccccc1 [duvelisib]
The description is as above. In short, it runs like this:
as §1
As to STK36 (UniProt Q9NRP7), the log2 fold change is inactive: -0.033.

For the target STK40 isoform 4 (UniProt Q8N2I9), the log2 fold change is inactive: 0.103.

On to SYS1 (UniProt Q8N2H4), for which the log2 fold change was inactive: 0.085.

Take SUSD1 isoform 2 (UniProt Q6UWL2): the log2 fold change is inactive: 0.005.

On to STK35 (UniProt Q8TDR2), for which the log2 fold change is inactive: 0.142.

As for SYTL4 (UniProt Q96C24), the log2 fold change is inactive: 0.007.

With TAF13 (UniProt Q15543), the log2 fold change was inactive: 0.003.

Consider TAF11 (UniProt Q15544), for which the log2 fold change is inactive: 0.088.

In the case of SYP (UniProt P08247), the log2 fold change is inactive: -0.034.

With SUGT1 isoform 2 (UniProt Q9Y2Z0), the log2 fold change is inactive: -0.012.

For SUZ12 (UniProt Q15022), the log2 fold change is inactive: -0.495.

Turning to TAZ (UniProt Q16635), the log2 fold change is inactive: 0.098.

For the target STYX (UniProt Q8WUJ0), the log2 fold change was inactive: 0.104.

With SVBP (UniProt Q8N300), the log2 fold change is inactive: 0.003.

Take STRIP2 (UniProt Q9ULQ0): the log2 fold change was inactive: 0.008.

TBC1D10A (UniProt Q9BXI6): the log2 fold change was inactive: 0.045.

Compound in another test: Cc1cc(Nc2cc(CN3CCOCC3)c3nc(C)c(Cc4ccc(Cl)cc4F)n3n2)n[nH]1 [gandotinib]
The test is described as above. In a few lines: as §1
For STK36 (UniProt Q9NRP7), the log2 fold change was inactive: -0.203.

On to STON2 isoform 3 (UniProt Q8WXE9), for which the log2 fold change is inactive: -0.117.

SYS1 (UniProt Q8N2H4): the log2 fold change is inactive: -0.154.

Consider SUSD1 isoform 2 (UniProt Q6UWL2), for which the log2 fold change is inactive: 0.057.

With TACC2 (UniProt O95359), the log2 fold change was inactive: -0.154.

Regarding TAF6L (UniProt Q9Y6J9), the log2 fold change is inactive: -0.08.

Consider TAOK2 (UniProt Q9UL54), for which the log2 fold change was inactive: -0.045.

Regarding TAF13 (UniProt Q15543), the log2 fold change is inactive: 0.141.

TAF11 (UniProt Q15544): the log2 fold change was inactive: -0.046.

Turning to SYP (UniProt P08247), the log2 fold change was inactive: 0.047.

In the case of STRN3 isoform 2 (UniProt Q13033), the log2 fold change was inactive: -0.115.

Turning to TAF5 (UniProt Q15542), the log2 fold change was inactive: 0.084.

Consider STYX (UniProt Q8WUJ0), for which the log2 fold change was inactive: -0.084.

Consider SVBP (UniProt Q8N300), for which the log2 fold change was inactive: 0.129.

For SULT1E1 (UniProt P49888), the log2 fold change was inactive: -0.156.

With STRIP2 (UniProt Q9ULQ0), the log2 fold change is inactive: -0.021.

As to TBC1D10A (UniProt Q9BXI6), the log2 fold change is inactive: -0.424.
